Reference: US20230042913A1 (COUNCIL OF THE QUEENSLAND INSTITUTE OF MEDICAL RESEARCH, published 2023)
Results are given in words; binding and its absence hold for the method and conditions named. Some binding calls cover weakened binding; strength is not graded here. Sequences can lack the tags named with a protein.

Sequences of proteins named here, by UniProt entry; tags and fusion partners are left off.
UniProt O35235: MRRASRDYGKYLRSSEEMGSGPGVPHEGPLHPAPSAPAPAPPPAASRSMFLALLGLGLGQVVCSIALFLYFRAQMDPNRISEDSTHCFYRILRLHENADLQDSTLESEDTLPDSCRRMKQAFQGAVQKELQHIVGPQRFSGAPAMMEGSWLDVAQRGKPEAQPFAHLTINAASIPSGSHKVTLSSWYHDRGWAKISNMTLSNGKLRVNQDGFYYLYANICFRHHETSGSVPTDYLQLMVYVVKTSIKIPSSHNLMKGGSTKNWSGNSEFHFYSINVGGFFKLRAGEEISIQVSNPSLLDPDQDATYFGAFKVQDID

Biological target: mouse RANKL transiently expressed by HEK-293 cells (mouse) (UniProt O35235)
Assay: flow cytometry on HEK-293 cells transiently transfected with muRANKL

B1: recombinant murine RANK-Fc (Fc fusion, mouse, UniProt O35305 31-214, looked up, not shown: a dimerising Fc or GST)
chain: VTPPCTQERHYEHLGRCCSRCEPGKYLSSKCTPTSDSVCLPCGPDEYLDTWNEEDKCLLHKVCDAGKALVAVDPGNHTAPRRCACTAGYHWNSDCECCRRNTECAPGFGAQHPLQLNKDTVCTPCLLGFFSDVFSSTDKCKPWTNCTLLGKLEAHQGTTESDVVCSSSMTLRRPPKEAQAYLPS
modifications: biotinylated
  binding: binds
